# Measurements published in PMC5685703.
# The chains behind the UniProt entries cited, without tags or fusion partners.
# UniProt P35226: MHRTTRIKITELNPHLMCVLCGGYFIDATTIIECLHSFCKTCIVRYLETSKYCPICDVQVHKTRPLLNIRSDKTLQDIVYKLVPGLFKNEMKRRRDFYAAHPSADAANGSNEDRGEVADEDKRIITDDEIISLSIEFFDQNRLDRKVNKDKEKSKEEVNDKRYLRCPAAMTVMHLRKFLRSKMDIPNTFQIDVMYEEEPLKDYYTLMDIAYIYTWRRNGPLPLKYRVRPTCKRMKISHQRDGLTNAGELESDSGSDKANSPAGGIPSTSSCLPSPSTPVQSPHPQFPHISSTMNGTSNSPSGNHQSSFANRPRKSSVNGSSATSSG
# UniProt Q13535: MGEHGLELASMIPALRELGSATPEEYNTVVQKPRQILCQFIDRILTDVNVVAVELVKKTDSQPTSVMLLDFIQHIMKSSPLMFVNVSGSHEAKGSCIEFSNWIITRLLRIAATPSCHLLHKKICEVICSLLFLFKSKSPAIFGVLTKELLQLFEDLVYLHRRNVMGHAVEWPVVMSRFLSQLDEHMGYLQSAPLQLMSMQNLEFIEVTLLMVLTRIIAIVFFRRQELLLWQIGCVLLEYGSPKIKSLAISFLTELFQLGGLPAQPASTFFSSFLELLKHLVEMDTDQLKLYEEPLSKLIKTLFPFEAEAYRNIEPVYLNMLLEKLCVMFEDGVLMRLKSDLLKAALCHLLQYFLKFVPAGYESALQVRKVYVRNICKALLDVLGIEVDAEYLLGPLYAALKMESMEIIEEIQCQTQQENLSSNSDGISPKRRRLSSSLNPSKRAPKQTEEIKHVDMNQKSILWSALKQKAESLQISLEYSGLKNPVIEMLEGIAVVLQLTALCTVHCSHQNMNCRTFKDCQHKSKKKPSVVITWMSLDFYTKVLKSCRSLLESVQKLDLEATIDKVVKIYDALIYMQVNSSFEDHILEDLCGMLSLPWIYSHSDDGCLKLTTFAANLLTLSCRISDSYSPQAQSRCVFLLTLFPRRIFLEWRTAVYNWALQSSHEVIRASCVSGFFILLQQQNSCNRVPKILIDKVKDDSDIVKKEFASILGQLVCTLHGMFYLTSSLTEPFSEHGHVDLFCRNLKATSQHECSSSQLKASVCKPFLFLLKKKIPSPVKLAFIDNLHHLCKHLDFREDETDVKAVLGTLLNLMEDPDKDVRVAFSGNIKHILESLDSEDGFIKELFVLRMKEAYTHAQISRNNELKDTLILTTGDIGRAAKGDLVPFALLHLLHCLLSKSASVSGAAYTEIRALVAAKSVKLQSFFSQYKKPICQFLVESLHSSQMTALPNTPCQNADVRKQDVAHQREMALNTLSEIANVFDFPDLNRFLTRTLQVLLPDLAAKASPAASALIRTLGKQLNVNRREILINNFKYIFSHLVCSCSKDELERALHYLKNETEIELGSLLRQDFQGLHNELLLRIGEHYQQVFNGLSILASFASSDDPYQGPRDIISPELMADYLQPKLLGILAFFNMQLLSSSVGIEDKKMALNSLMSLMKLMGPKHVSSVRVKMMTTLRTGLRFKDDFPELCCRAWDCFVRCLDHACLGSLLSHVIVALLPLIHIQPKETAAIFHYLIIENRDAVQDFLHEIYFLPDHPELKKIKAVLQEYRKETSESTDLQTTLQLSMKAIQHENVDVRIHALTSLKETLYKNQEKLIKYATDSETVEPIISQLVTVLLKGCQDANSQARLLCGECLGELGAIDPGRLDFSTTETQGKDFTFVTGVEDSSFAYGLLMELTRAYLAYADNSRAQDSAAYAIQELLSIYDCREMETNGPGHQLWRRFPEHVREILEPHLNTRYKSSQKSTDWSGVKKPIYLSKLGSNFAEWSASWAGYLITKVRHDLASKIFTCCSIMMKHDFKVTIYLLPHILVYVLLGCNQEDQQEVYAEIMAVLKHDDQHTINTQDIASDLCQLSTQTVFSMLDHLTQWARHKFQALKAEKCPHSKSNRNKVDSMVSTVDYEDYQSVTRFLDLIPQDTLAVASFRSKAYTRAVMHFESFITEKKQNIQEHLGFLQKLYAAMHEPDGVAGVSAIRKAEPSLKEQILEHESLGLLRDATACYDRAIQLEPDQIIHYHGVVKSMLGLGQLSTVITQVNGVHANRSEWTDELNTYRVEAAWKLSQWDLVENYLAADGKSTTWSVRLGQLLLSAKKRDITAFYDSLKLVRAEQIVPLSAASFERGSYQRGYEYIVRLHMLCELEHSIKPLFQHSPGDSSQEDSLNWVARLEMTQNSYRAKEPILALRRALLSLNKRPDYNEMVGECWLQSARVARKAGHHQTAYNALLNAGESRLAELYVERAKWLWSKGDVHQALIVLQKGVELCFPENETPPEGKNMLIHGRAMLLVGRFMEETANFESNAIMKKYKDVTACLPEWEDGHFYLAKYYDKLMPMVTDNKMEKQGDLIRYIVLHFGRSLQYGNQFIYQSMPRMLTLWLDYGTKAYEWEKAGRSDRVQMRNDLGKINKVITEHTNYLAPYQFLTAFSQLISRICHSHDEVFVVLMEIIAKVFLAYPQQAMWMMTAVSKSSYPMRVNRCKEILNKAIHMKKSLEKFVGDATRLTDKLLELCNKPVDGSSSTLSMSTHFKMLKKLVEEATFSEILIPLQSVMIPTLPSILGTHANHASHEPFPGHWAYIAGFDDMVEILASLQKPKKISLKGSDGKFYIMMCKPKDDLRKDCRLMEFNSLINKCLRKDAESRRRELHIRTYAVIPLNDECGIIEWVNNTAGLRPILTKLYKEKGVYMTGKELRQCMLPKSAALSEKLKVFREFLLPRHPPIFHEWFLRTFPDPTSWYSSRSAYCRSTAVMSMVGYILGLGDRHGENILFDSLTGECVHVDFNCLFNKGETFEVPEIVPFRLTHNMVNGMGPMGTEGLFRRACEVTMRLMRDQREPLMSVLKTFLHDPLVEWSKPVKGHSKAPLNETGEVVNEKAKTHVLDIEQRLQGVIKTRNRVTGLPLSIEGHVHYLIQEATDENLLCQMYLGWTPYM
# These are yes or no findings as the source states them, for the method shown. In cells and extracts the contact can be indirect. Some binding calls cover weakened binding; strength is not graded here.
# Experiments:
# [1] = target: BMI1 (ectopic, co-transfected with TOPBP1 in 293T cells) (UniProt P35226); test: co-IP; 293T cells co-transfected with BMI1 and TOPBP1 for 36 hours, without or with HU (1 mM, 24 hours); lysates IP with anti-BMI1 or control IgG, with or without ethidium bromide (50 μg/ml); Western blot for TOPBP1, BMI1 and ATR
# [2] = target: BMI1 (endogenous, MCF7 cells) (human (endogenous in MCF7)) (UniProt P35226); test: co-IP; MCF7 cells without or with HU (1 mM, 24 hours); lysates treated with benzonase 1 U/μl on ice for 1 hour; IP of endogenous BMI1; Western blot
# [3] = target: ATR (endogenous, MCF7 cells) (human (endogenous in MCF7)) (UniProt Q13535); test: co-IP; MCF7 cells without or with HU (1 mM, 24 hours); lysates treated with benzonase 1 U/μl on ice for 1 hour; IP of endogenous ATR; Western blot
substance,measurement,setting,value
"ATR (endogenous, 293T cells) (from UniProt Q13535 1-2644)",binding,[1],binds
"ATR (endogenous, MCF7 cells) (from UniProt Q13535 1-2644)",binding,[2],binds
"BMI1 (endogenous, MCF7 cells) (from UniProt P35226 1-326)",binding,[3],binds
